Measured values reported in patent US20240158503A1.
No constants are given. Whether binding was seen depends on the method and setting. Some entries that bind do so weakly or less than the wild type.

Amino acid sequences for entries named in this document (tags omitted). Residues count along the entry.
UniProt Q9Y279, residues 20-399: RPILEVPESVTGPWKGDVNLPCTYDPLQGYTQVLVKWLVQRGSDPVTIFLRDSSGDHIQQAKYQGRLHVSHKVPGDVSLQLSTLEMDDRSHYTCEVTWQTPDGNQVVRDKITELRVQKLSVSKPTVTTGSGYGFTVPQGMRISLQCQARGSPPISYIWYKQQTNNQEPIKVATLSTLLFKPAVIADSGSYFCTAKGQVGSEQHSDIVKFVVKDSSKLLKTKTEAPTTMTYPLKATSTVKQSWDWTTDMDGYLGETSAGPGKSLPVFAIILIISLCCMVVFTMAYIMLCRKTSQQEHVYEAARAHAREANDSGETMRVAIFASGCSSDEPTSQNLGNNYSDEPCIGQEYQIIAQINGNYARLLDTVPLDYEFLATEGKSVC

Key:
[1] = molecular target: human VSIG4 overexpressed on HEK293E cells (human) (UniProt Q9Y279); test: FACS on hVSIG4/HEK293E cells at 0.08, 0.4 and 2 ug/ml
[2] = molecular target: human VSIG4 overexpressed on HEK293E cells (human) (UniProt Q9Y279); test: flow cytometry titration on HEK293E cells expressing human VSIG4
[3] = molecular target: human VSIG4 overexpressed on HEK293E cells (human) (UniProt Q9Y279); test: FACS on hVSIG4/HEK293E cells
[4] = molecular target: human VSIG4 overexpressed on HEK293E cells (human) (UniProt Q9Y279); test: FACS on hVSIG4/HEK293E against parental HEK293E cells

Measured: binding

B1: SA2297 (full-length human anti-VSIG4 monoclonal antibody, IgG form) (antibody, V domains shown)
VH: QVQLVESGGGVVQPGGSLRLSCAASGFIFSDYYMSWVRQAPGKGLEWVSYISPSGYTISYADSVKGRFTISRDNSKNSLYLQMNSLRAEDTAVYYCARRFSSSWSGYFDYWGHGALVTVSS
VL: DIQMTQSPSTLSASVGDRVTITCRASQNINRWLAWYQQKPGKAPKLLIYKAFRLHSGVPSRFSGSGSGTEFTLTITSLQPDDFATYYCQQYLSYSSSIFGQGTKVEIK
binds: all assays above

B2: SA2281 (full-length human anti-VSIG4 monoclonal antibody, IgG form) (antibody, V domains shown)
VH: QVQLVESGGGVVQPGRSLRVSCAASGFTFSTYAMHWVRQAPGKGLEWLAVVSHDGTYKYYGDSVKGRFSISRDNSKNTLYLQMNSLRSEDTAVYYCGRHAAGSSFDYWGQGTVVTVSS
VL: DIQMTQSPSSLSASVGDRVTITCQASRDISNYLNWYQQKPGKAPKLLIYKTSNLQRGVPSRFSGSGSGTEFTLTISRLQPDDSATYYCQQSYRTPYTFGQGTKLEIK
binds: all assays above
